The supplement of paper PMC11732987, “Enantioselective OTUD7B fragment discovery through chemoproteomics screening and high-throughput optimisation” (Communications Chemistry, 2025)
The list shows a part of the results. The data scatter; read single values as rough.

Amino acid sequences for entries named in this document (tags omitted). A change or cut given only in a name is not applied to a line headed by its entry. Residues count along the entry.
UniProt Q14517: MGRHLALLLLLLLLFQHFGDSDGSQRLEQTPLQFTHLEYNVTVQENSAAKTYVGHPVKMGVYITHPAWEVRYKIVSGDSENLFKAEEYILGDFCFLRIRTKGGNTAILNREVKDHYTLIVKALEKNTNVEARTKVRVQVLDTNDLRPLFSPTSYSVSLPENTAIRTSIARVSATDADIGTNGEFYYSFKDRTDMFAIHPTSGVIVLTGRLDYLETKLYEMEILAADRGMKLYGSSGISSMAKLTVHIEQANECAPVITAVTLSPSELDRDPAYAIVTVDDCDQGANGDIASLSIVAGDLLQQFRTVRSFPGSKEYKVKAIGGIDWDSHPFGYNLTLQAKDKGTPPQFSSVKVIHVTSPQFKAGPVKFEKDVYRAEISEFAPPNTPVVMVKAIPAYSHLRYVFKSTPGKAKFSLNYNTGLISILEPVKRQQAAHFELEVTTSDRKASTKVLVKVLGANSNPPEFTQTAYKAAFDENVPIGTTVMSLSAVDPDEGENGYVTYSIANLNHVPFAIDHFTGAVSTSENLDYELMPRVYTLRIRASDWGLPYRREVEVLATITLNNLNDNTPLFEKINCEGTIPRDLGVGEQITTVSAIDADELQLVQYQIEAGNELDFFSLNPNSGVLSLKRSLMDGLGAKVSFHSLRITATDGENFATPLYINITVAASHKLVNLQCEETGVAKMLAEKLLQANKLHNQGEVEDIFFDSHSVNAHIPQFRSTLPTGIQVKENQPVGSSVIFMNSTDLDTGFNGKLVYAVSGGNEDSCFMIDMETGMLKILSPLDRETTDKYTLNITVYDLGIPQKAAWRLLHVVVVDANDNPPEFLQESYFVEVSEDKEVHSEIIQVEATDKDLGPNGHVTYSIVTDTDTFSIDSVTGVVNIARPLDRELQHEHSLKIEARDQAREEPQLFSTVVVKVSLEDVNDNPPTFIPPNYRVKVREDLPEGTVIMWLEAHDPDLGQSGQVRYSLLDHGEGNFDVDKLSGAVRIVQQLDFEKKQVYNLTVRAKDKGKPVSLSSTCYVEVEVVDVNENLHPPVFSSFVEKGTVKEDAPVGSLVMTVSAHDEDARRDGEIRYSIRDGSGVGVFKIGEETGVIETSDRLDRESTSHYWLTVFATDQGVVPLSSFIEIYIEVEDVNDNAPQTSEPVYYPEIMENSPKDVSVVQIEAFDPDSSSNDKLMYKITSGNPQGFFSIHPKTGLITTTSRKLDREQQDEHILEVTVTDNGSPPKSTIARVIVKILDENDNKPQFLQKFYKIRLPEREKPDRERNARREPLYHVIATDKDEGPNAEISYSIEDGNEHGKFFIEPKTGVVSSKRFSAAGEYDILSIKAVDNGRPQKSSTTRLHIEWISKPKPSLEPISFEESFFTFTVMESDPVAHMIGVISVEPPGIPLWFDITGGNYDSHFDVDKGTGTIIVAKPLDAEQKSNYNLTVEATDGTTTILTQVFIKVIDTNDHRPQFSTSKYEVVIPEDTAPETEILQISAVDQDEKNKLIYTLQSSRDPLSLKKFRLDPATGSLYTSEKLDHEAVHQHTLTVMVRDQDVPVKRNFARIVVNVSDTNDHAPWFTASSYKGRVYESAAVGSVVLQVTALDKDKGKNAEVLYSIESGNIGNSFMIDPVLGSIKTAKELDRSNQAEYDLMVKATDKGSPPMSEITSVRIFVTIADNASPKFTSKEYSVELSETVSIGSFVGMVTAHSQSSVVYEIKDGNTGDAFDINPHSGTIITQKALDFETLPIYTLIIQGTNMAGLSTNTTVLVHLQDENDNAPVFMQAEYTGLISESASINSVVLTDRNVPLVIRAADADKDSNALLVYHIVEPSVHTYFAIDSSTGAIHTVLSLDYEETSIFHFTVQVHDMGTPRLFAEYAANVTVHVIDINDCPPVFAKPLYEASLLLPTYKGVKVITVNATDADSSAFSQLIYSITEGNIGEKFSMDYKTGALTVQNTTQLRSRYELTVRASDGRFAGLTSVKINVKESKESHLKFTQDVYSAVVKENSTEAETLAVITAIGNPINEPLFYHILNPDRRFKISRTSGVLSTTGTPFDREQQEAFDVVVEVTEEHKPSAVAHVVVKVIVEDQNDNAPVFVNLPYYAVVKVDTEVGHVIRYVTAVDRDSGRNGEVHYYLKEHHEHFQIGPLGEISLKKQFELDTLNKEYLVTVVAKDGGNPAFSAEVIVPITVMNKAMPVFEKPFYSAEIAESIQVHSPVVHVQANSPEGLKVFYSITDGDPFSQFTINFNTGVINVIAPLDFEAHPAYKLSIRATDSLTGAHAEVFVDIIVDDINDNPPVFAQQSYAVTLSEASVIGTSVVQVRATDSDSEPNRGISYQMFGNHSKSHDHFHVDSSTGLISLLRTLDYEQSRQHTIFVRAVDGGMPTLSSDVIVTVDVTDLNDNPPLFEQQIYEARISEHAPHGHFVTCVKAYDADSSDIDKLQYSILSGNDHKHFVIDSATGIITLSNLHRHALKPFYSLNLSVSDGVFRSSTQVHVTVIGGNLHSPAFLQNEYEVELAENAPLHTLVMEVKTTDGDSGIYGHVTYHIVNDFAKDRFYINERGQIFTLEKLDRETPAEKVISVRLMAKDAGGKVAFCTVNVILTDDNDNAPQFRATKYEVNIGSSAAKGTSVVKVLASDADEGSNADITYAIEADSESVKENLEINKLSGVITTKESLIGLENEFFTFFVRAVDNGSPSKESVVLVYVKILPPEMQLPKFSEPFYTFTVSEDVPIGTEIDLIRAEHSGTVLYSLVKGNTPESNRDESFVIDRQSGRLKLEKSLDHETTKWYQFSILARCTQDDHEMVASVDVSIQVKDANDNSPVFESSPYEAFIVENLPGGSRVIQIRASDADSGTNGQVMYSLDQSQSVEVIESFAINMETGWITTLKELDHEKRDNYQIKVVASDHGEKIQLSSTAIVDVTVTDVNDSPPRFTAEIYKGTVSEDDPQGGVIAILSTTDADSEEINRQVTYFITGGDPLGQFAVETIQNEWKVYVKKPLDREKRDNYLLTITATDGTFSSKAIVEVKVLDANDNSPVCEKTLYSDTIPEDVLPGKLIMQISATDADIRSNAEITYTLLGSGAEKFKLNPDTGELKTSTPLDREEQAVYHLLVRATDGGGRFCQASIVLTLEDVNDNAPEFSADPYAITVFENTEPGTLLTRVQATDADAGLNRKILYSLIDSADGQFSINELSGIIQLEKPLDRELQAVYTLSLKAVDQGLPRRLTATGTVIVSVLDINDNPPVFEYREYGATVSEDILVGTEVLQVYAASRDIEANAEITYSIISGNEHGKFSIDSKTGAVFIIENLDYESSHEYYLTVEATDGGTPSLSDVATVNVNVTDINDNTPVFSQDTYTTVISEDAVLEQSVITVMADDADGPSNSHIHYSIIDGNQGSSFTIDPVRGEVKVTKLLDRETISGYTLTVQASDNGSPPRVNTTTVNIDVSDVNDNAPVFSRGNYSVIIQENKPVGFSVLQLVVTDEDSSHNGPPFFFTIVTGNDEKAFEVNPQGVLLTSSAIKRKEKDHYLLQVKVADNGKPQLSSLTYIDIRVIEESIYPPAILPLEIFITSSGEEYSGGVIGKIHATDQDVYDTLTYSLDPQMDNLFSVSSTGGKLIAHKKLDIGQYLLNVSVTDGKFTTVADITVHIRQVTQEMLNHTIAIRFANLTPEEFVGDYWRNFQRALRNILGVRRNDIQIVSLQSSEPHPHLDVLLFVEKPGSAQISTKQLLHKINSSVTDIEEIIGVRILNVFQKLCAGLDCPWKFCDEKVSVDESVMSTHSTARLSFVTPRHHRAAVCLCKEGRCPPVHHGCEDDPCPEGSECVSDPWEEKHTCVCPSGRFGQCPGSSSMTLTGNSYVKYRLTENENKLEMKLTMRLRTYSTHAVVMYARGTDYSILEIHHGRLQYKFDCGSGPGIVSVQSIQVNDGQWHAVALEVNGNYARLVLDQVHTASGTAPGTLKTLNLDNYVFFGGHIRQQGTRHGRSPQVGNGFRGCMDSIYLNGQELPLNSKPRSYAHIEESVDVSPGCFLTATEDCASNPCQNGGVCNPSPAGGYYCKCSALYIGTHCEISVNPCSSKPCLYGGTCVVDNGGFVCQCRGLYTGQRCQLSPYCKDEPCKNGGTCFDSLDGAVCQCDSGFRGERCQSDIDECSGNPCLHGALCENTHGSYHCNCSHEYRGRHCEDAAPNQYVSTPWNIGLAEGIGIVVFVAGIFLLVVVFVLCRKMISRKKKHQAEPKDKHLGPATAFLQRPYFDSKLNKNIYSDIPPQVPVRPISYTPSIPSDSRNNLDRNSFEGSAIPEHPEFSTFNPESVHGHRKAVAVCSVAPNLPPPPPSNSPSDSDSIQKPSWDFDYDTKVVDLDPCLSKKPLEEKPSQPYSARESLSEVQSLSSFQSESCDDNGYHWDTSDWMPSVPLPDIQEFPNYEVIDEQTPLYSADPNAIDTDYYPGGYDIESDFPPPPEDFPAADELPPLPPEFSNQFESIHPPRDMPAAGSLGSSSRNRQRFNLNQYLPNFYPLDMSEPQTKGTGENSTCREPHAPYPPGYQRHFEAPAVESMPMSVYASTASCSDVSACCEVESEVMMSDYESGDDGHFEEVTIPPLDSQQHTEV
UniProt Q96AE4: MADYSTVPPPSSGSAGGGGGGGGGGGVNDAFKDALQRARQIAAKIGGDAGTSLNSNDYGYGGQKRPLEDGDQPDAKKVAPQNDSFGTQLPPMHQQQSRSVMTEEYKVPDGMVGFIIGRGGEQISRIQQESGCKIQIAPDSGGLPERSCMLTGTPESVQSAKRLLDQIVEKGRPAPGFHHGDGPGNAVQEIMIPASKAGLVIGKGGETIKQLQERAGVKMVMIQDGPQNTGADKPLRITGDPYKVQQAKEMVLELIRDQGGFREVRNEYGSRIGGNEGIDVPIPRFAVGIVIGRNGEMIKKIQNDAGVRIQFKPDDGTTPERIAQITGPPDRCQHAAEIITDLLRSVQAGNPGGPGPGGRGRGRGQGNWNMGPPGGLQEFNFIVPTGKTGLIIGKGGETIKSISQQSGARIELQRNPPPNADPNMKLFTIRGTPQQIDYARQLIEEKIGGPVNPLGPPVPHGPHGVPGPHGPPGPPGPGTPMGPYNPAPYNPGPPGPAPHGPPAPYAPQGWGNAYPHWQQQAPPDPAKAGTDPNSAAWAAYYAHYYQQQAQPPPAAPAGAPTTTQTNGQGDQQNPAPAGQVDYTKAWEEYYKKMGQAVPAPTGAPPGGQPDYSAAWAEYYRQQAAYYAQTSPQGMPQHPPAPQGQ
UniProt Q9Y3I1: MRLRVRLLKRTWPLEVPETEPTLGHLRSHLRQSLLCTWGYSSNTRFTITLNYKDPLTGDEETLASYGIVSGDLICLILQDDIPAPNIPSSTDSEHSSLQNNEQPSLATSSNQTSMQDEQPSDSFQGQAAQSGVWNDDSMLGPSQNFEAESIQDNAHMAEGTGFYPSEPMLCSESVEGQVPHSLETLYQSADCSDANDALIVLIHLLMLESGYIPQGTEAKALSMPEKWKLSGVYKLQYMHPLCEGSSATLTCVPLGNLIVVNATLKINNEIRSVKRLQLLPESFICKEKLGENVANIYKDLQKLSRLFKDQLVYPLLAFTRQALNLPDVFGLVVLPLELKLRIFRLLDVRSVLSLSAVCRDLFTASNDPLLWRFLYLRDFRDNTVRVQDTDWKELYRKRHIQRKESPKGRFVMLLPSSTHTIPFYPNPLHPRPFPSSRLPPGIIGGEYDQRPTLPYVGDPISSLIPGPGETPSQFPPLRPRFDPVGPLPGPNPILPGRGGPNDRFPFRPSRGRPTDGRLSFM
UniProt Q8N0W3, 580-605: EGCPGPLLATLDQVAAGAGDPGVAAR
UniProt O14772: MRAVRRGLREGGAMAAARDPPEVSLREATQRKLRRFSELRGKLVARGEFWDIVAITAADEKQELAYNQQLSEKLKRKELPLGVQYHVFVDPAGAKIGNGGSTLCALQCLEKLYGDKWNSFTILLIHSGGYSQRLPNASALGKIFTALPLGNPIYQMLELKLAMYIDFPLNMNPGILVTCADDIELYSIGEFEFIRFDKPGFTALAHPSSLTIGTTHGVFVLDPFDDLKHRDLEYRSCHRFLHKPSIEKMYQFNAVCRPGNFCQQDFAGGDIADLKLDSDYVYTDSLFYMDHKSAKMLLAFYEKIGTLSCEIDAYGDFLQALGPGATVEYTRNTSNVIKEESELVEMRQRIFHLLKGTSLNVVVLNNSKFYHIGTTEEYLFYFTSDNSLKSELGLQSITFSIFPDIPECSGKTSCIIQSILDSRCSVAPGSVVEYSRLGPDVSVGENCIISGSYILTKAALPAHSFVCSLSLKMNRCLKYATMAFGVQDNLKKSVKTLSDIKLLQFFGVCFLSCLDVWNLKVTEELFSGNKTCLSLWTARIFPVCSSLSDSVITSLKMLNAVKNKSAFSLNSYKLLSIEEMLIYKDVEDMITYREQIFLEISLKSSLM

What follows are targets tested with ClCC(=O)N[C@@H]1CCCc2ccccc12 (assay: log2 mean competition ratio of IA-DTB cysteine labelling (DMSO/compound) (log2 ratio); higher = stronger cysteine engagement by compound). Conditions: 50 µM; treatment time: 4 h; cell line lysate: HEK293T.
Method: (§1)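 IA-DTB competitive cysteine chemoproteomics in HEK293T RIPA lysate. Lysates were treated with compound 29 or 30 at 50 or 200 µM for 4 h, then IA-DTB (500 µM, 1 h), trypsin-digested, NeutrAvidin-enriched and analysed by diaPASEF. Competition ratio = intensity DMSO / intensity compound (n=4 treated, n=64 DMSO); binding: mean log2 CR ≥ 1 and p ≤ 0.05 plus QC filters. Target is the cysteine site.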

| Target | log2 mean competition ratio |
| --- | --- |
| FBXO38 C401 (UniProt Q6PIJ6) | -0.151 |
| FNTA C341 | 0.00746 |
| FHOD1 C31 (UniProt Q9Y613) | 0.112 |
| FAT1 C674 (UniProt Q14517) | -0.23 |
| FUBP1 C148 (UniProt Q96AE4) | 0.17 |
| FBXO21 C66 (UniProt O94952) | -0.0462 |
| FXR2 C282 (UniProt P51116) | -0.0818 |
| GABPA C421 (UniProt Q06546) | -0.0447 |
| FOXM1 C526 | 0.834 |
| FZD6 C161 (UniProt O60353) | -0.0445 |
| FCHSD2 C354 (UniProt O94868) | 0.0532 |
| FBXO7 C286 (UniProt Q9Y3I1) | -0.12 |
| FKBP10 C392 (UniProt Q96AY3) | 0.11 |
| FLNC C2679 (UniProt Q14315) | -0.132 |
| FNIP1 C281 (UniProt Q8TF40) | 0.101 |
| FECH C395 (UniProt P22830) | 0.143 |
| FBXL3 C331 | -0.127 |
| FCSK C582 (UniProt Q8N0W3) | -0.163 |
| FBXO38 C803 (UniProt Q6PIJ6) | 0.0474 |

| Target | log2 mean competition ratio |
| --- | --- |
| FASTKD3 C266 (UniProt Q14CZ7) | 0.0196 |
| FBXO42 C403 (UniProt Q6P3S6) | 0.0409 |
| FER C627 (UniProt P16591) | 0.328 |
| FBN2 C89 (UniProt P35556) | 0.109 |
| FBXL18 C423 (UniProt Q96ME1) | -0.199 |
| FCHSD2 C105 (UniProt O94868) | -0.104 |
| GART C291 | 0.105 |
| GAPVD1 C789 (UniProt Q14C86) | -0.0868 |
| FUBP1 C132 (UniProt Q96AE4) | -0.138 |
| FRYL C2803 (UniProt O94915) | -0.539 |
| FCSK C1000 (UniProt Q8N0W3) | 0.259 |
| FER C785 (UniProt P16591) | 0.0382 |
| FPGT C414 (UniProt O14772) | -0.0421 |
| FRMD8 C191 (UniProt Q9BZ67) | -0.169 |
| FASTKD1 C686 (UniProt Q53R41) | 0.389 |
| FOXF2 C157 | 0.326 |
| GAB1 C213 (UniProt Q13480) | -0.12 |
| GAB1 C360 (UniProt Q13480) | 0.094 |

Same assay, conditions: 200 µM; treatment time: 4 h; cell line lysate: HEK293T

| Target | log2 mean competition ratio |
| --- | --- |
| FBXO38 C401 (UniProt Q6PIJ6) | -0.192 |
| FNTA C341 | -0.0281 |
| FHOD1 C31 (UniProt Q9Y613) | 0.0336 |
| FAT1 C674 (UniProt Q14517) | -0.194 |
| FUBP1 C148 (UniProt Q96AE4) | -0.187 |
| FBXO21 C66 (UniProt O94952) | -0.264 |
| FXR2 C282 (UniProt P51116) | 0.235 |
| GABPA C421 (UniProt Q06546) | 0.186 |
| FOXM1 C526 | 0.394 |
| FZD6 C161 (UniProt O60353) | 0.0622 |
| FCHSD2 C354 (UniProt O94868) | 0.0495 |
| FBXO7 C286 (UniProt Q9Y3I1) | -0.0909 |
| FKBP10 C392 (UniProt Q96AY3) | 0.321 |
| FLNC C2679 (UniProt Q14315) | -0.307 |
| FNIP1 C281 (UniProt Q8TF40) | 0.305 |
| FECH C395 (UniProt P22830) | 0.355 |
| FBXL3 C331 | 0.113 |
| FCSK C582 (UniProt Q8N0W3) | 0.457 |
| FBXO38 C803 (UniProt Q6PIJ6) | 0.111 |

| Target | log2 mean competition ratio |
| --- | --- |
| FASTKD3 C266 (UniProt Q14CZ7) | -0.0505 |
| FBXO42 C403 (UniProt Q6P3S6) | 0.129 |
| FER C627 (UniProt P16591) | -0.0176 |
| FBN2 C89 (UniProt P35556) | 0.238 |
| FBXL18 C423 (UniProt Q96ME1) | 0.156 |
| FCHSD2 C105 (UniProt O94868) | 0.133 |
| GART C291 | 0.252 |
| GAPVD1 C789 (UniProt Q14C86) | -0.048 |
| FUBP1 C132 (UniProt Q96AE4) | 0.0715 |
| FRYL C2803 (UniProt O94915) | -0.186 |
| FCSK C1000 (UniProt Q8N0W3) | 0.867 |
| FER C785 (UniProt P16591) | 0.185 |
| FPGT C414 (UniProt O14772) | -0.208 |
| FRMD8 C191 (UniProt Q9BZ67) | 0.21 |
| FASTKD1 C686 (UniProt Q53R41) | 0.413 |
| FOXF2 C157 | 0.637 |
| GAB1 C213 (UniProt Q13480) | -0.0608 |
| GAB1 C360 (UniProt Q13480) | 0.24 |

Each target was assayed with ClCC(=O)N[C@H]1CCCc2ccccc12 in the same assay as above. Conditions: 50 µM; treatment time: 4 h; cell line lysate: HEK293T.
Method: as §1

| Target | log2 mean competition ratio |
| --- | --- |
| FBXO38 C401 (UniProt Q6PIJ6) | 0.224 |
| FNTA C341 | -0.39 |
| FHOD1 C31 (UniProt Q9Y613) | -0.667 |
| FAT1 C674 (UniProt Q14517) | -0.3 |
| FUBP1 C148 (UniProt Q96AE4) | 0.117 |
| FBXO21 C66 (UniProt O94952) | -0.224 |
| FXR2 C282 (UniProt P51116) | -0.13 |
| GABPA C421 (UniProt Q06546) | -0.0486 |
| FOXM1 C526 | -0.0574 |
| FZD6 C161 (UniProt O60353) | -0.108 |
| FCHSD2 C354 (UniProt O94868) | -0.685 |
| FBXO7 C286 (UniProt Q9Y3I1) | -0.322 |
| FKBP10 C392 (UniProt Q96AY3) | -0.105 |
| FLNC C2679 (UniProt Q14315) | 0.202 |
| FNIP1 C281 (UniProt Q8TF40) | 0.144 |
| FECH C395 (UniProt P22830) | -0.158 |
| FBXL3 C331 | -0.0985 |
| FCSK C582 (UniProt Q8N0W3) | -0.687 |
| FBXO38 C803 (UniProt Q6PIJ6) | 0.151 |

| Target | log2 mean competition ratio |
| --- | --- |
| FASTKD3 C266 (UniProt Q14CZ7) | -0.286 |
| FBXO42 C403 (UniProt Q6P3S6) | 0.239 |
| FER C627 (UniProt P16591) | 0.546 |
| FBN2 C89 (UniProt P35556) | 0.156 |
| FBXL18 C423 (UniProt Q96ME1) | -0.0768 |
| FCHSD2 C105 (UniProt O94868) | -0.228 |
| GART C291 | 0.388 |
| GAPVD1 C789 (UniProt Q14C86) | 0.112 |
| FUBP1 C132 (UniProt Q96AE4) | -0.212 |
| FRYL C2803 (UniProt O94915) | -0.384 |
| FCSK C1000 (UniProt Q8N0W3) | -0.358 |
| FER C785 (UniProt P16591) | -0.125 |
| FPGT C414 (UniProt O14772) | -0.216 |
| FRMD8 C191 (UniProt Q9BZ67) | -0.203 |
| FASTKD1 C686 (UniProt Q53R41) | 0.364 |
| FOXF2 C157 | -0.0821 |
| GAB1 C213 (UniProt Q13480) | -0.266 |
| GAB1 C360 (UniProt Q13480) | -0.25 |
